From patent US20190160058A1, “METHODS OF TREATMENT WITH SELECTIVE CB2 RECEPTOR AGONISTS” (Arena Pharmaceuticals, Inc., priority 2016, published 2019)
Some entries share one result that the patent states for a list of compounds.

By UniProt entry, the sequences of proteins in these tests, tags left out.
UniProt P34972, whole entry: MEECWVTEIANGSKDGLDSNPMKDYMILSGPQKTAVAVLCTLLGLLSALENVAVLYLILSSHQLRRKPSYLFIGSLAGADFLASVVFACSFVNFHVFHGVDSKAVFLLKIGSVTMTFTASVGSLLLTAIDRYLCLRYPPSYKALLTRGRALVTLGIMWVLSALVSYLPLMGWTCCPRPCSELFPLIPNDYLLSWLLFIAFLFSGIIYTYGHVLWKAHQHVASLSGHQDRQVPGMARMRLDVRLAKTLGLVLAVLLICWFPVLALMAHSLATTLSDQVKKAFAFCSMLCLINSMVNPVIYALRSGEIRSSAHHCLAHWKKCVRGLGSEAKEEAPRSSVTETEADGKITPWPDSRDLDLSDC

Target: CB2 receptor (Homo sapiens, UniProt P34972)
Assay: internalization of the CB2 receptor in a cell
Assay type: cell-based
Details: stated as an embodiment
Excerpt: In some embodiments, the selective CB2 receptor agonist increases internalization of the CB2 receptor in a cell to at least 75%, at least 80%, at least 85%, at least 90%, at least 95%, at least 96%, at least 97%, at least 98%, or at least about 99% the level of internalization that would occur if the cell were contacted with CP55,940. In some embodiments, the CB2 receptor agonist that increases internalization of the CB2 receptor to at least 90% of CP55,940 is selected from: Compound B, Compound E, Compound G, and Compound H. CP55,940 has the following chemical structure: […]
Receptor internalization can be measured using a number of methods, including but not limited to measuring a loss of labeled receptor from the cell surface (e.g., using flow cytometry) measuring the appearance of receptors internalized in the cell (e.g., in characteristic punctate intracellular vesicles), and/or measuring the return of receptors recycled to the cell surface. For example, the number, density, and/or staining intensity of granules in the cell can be quantified. Receptor internalization can be measured using any appropriate method known to those of skill in the art. […]

CC(C)(C)[C@@H](CO)NC(=O)c1nn(-c2c[n+]([O-])ccn2)c2c1C[C@@H]1C[C@H]21 [APD371, (1aS,5aS)-2-(4-Oxy-pyrazin-2-yl)-1a,2,5,5a-tetrahydro-1H-2,3-diaza-cyclopropa[a]pentalene-4-carboxylic Acid ((S)-1-Hydroxymethyl-2,2-dimethyl-propyl)-amide]
internalization of the CB2 receptor as % of CP55,940: at least 90%
